Source: PMC7819943, “Rice protein-binding microarrays: a tool to detect cis-acting elements near promoter regions in rice”
This is one part of the list.

Molecular target: T1, OsSMF1 (Oryza sativa, UniProt Q6ZLB0 1-436)
T1 sequence: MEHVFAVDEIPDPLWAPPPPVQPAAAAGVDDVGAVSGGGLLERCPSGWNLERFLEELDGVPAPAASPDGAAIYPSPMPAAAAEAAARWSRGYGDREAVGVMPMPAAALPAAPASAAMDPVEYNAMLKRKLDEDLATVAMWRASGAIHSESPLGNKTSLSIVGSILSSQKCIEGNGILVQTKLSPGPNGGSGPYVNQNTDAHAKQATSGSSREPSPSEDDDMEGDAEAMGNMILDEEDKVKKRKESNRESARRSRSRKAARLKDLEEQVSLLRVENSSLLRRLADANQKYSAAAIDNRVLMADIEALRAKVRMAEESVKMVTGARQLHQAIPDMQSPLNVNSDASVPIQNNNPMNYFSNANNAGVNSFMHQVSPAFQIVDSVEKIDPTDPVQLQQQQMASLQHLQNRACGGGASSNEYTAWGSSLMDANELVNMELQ
Assay: protein-binding microarray (RPBM); PBS, 2% BSA, 51.3 ng/ul salmon testes DNA, 50 uM zinc acetate, 200 nM TF, 25 C, 1 h; high values mean tight binding
Settings: protein: recombinant; tags: N-terminal polyhistidine and DsRed monomer fusion (pET32a); chain copies: 2; label: CyDye5-dUTP incorporated in the synthesized complementary strand; 3' TTTTT single-stranded linker to array surface; dsDNA, one strand shown
Outline: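 The binding signal is fluorescence intensity per feature, in arbitrary units, read on an Axon 4000B scanner. Polyhistidine- and DsRed-tagged transcription factors (N-terminal fusions) from E. coli BL21-CodonPlus were purified on Ni–NTA and applied at 200 nM for 1 h at 25 °C to a double-stranded, BSA-blocked custom Agilent array in buffer with 50 µM zinc acetate.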

| Sequence | binding signal |
| --- | --- |
| CCTCTGCGCAACCGAAGCAAGGTGACGCATCCGATCTCCGCGGAGTCACCTAGTGCAG | 4150 fluorescence intensity (a.u.) |
| CCTTTAACTAATGTTCACTTTGGACCGGATAATCTTACCTCGGAGTCACCTAGTGCAG | 3810 fluorescence intensity (a.u.) |
| AAAATTGGTGGTTGCTGCGCCTGCTGGTGCCAGATGTTATCGGAGTCACCTAGTGCAG | 3190 fluorescence intensity (a.u.) |
| AAGGGAGAGGAGCTTACGTGGCATCCTGACATGTGGGCACCGGAGTCACCTAGTGCAG | 23400 fluorescence intensity (a.u.) |
| TGTTCTTCAGGAAGGCGTCCTCGACGACGTGTCGGCGATGCGGAGTCACCTAGTGCAG | 5300 fluorescence intensity (a.u.) |
| GAAGGGAGCAGTACGGCCAGAGAGCTAGGGTTTGGGTAATCGGAGTCACCTAGTGCAG | 3550 fluorescence intensity (a.u.) |
| AGCCGCGGTCACGCACGCCACGCGTTCGATCGATCGATCACGGAGTCACCTAGTGCAG | 4120 fluorescence intensity (a.u.) |
| TCCACGGAGATCCAGATCTATCCAACGCTCCACGCACCCACGGAGTCACCTAGTGCAG | 3610 fluorescence intensity (a.u.) |
| GGAGGCTGACGTGGATTACGCTGACATGTGGGGCCTATGTCGGAGTCACCTAGTGCAG | 21200 fluorescence intensity (a.u.) |
| TCCAGACGCGGCCTCGTCGTCACCACTGCAGCCTCCTCCTCGGAGTCACCTAGTGCAG | 3710 fluorescence intensity (a.u.) |
| GGGAAAGTTTTGAAAAGAACTCAGCCAGTGAAAATGCATGCGGAGTCACCTAGTGCAG | 5910 fluorescence intensity (a.u.) |
| AAAGATGGCATGCCAACAGAGATAGATCAGGGCTCAGGGGCGGAGTCACCTAGTGCAG | 3150 fluorescence intensity (a.u.) |
| TAACTCGTGGCATATAGCTGCATCAACCCGTAATGACTTACGGAGTCACCTAGTGCAG | 7040 fluorescence intensity (a.u.) |
| TGGGAGTTTTATTTATATACAACGTGTAGCACTAGCCATTCGGAGTCACCTAGTGCAG | 3210 fluorescence intensity (a.u.) |
| TCTTATACTAAGATAATAAGATTATATCCTTGTCATCCAACGGAGTCACCTAGTGCAG | 4430 fluorescence intensity (a.u.) |
| TAGTTAAAGCCACGTTCTTAATTTCTCCTTTTGCTTTTGGCGGAGTCACCTAGTGCAG | 4020 fluorescence intensity (a.u.) |
| ACGACCGTCCACGCCTCGCGCCACCTCTCGTCCGCCAAACCGGAGTCACCTAGTGCAG | 4800 fluorescence intensity (a.u.) |
| CGGTTTTGACCCCGATTTATCTGACGTGGCGGCTGAGTCGCGGAGTCACCTAGTGCAG | 10900 fluorescence intensity (a.u.) |
| TGATTGGTAGTACGATTTTACGACACGTTGATCAGCCAGCCGGAGTCACCTAGTGCAG | 3470 fluorescence intensity (a.u.) |
| CCATCGAACTAATGCTTGCCGTCATCTACCAGCATACAGTCGGAGTCACCTAGTGCAG | 3310 fluorescence intensity (a.u.) |
| AGCTGCGCTCGAGCCACGTCAAAGGATCTAGCTAGTACTACGGAGTCACCTAGTGCAG | 5030 fluorescence intensity (a.u.) |

| Sequence | binding signal |
| --- | --- |
| CATCCCCACCTCTCTCCTCCTTCCGACCAATCTTTCTTCTCGGAGTCACCTAGTGCAG | 21300 fluorescence intensity (a.u.) |
| CAGCGTAATTCGCCACCTGTTGCTGTCGCCGTCCTCCTCCCGGAGTCACCTAGTGCAG | 3340 fluorescence intensity (a.u.) |
| TTTCGTTGTCCCTCGTCATTGCTAGACCCAACCGCCGCCACGGAGTCACCTAGTGCAG | 4460 fluorescence intensity (a.u.) |
| TAAGCTACCGAAAACATGCGTGTGTTGCAATTGTCTCGGTCGGAGTCACCTAGTGCAG | 4920 fluorescence intensity (a.u.) |
| CGTGCCTCCACCCCGCCGCCCGTTGACGGCCGCCCAGGTGCGGAGTCACCTAGTGCAG | 22400 fluorescence intensity (a.u.) |
| AGATGAATGAATCAGTAGTCATGTTGAGTGGAGATGACTGCGGAGTCACCTAGTGCAG | 3960 fluorescence intensity (a.u.) |
| TTCTCCCGTCGGATCCCGCGATCGTCCACGCCAGGGTTTACGGAGTCACCTAGTGCAG | 3690 fluorescence intensity (a.u.) |
| TCACCGCGTACGTCACATTTACAGCTTTTGGTCGTCTATACGGAGTCACCTAGTGCAG | 6150 fluorescence intensity (a.u.) |
| TCACCCGGAGAAATTCTCGAATAAACCCCTCACCACGGCGCGGAGTCACCTAGTGCAG | 4270 fluorescence intensity (a.u.) |
| TGTACAATTGTATTAGCAATAAAATAAAAGGTAGATAAAGCGGAGTCACCTAGTGCAG | 7950 fluorescence intensity (a.u.) |
| AGCGGACGCGCGGTATGGTCGATGGATGATGACACACGGTCGGAGTCACCTAGTGCAG | 5210 fluorescence intensity (a.u.) |
| GTCGGCTACGTGTTCGACAACGTGACGTACCCGACAGAGCCGGAGTCACCTAGTGCAG | 3640 fluorescence intensity (a.u.) |
| CAAATTTGGATTCGTTTTGTTCGTTTCCAGCTCACCCTGTCGGAGTCACCTAGTGCAG | 5320 fluorescence intensity (a.u.) |
| TTAGAATTTCACACGTGGGCCTATCTAAACATTTTCATGGCGGAGTCACCTAGTGCAG | 7560 fluorescence intensity (a.u.) |
| ATGCATTCCTCATGCATTCCTCTTACTTGTCCAAATAAAACGGAGTCACCTAGTGCAG | 3400 fluorescence intensity (a.u.) |
| CTCTCAGCTCACGTGACGTCAACCCCGCCAAAACGCGTTACGGAGTCACCTAGTGCAG | 3970 fluorescence intensity (a.u.) |
| TCAATCAATCAATTAATTAGTAATTCAAAGTACTAAACACCGGAGTCACCTAGTGCAG | 5120 fluorescence intensity (a.u.) |
| TGGATAATGGTGAGTTGGAAAGGATTTCATCCTCTACCCTCGGAGTCACCTAGTGCAG | 3640 fluorescence intensity (a.u.) |
| TCGCGCTGTCACCTAACATCAGGCAAGGGGCTCGTCACGTCGGAGTCACCTAGTGCAG | 3180 fluorescence intensity (a.u.) |
| CCCCACCTGTCAGCCACGTCGTCGCTTGCGCCCACCTCCCCGGAGTCACCTAGTGCAG | 15900 fluorescence intensity (a.u.) |
| ATCTTGATATCTGCAACATAAAATGTAACATCAGATTTAACGGAGTCACCTAGTGCAG | 39500 fluorescence intensity (a.u.) |

Another view of some results above.
Sequence | binding signal
TCACCGCGTACGTCACATTTACAGCTTTTGGTCGTCTATACGGAGTCACCTAGTGCAG | 6150 fluorescence intensity (a.u.)
TGGATAATGGTGAGTTGGAAAGGATTTCATCCTCTACCCTCGGAGTCACCTAGTGCAG | 3640 fluorescence intensity (a.u.)
